Assay results published in PubChem BioAssay AID270 (DTP/NCI, 2004).
The list does not hold the whole screen: it covers a few groups of compounds. Other doses and runs of a compound may be missing. T/C gives the treated animals as a percentage of the vehicle group. Some entries show no survivor count and are marked so; the dose need not have been tolerated. Schedule codes are those of the source, read here as Q, the interval in days (D) or hours (H), X, the number of doses. Where survival is the endpoint, the PubChem record calls one and a half times the control and up active, and a quarter to a half above the control has no call in these data; cut-offs in other NCI protocols can differ. Some doses were run more than once; their values stand side by side, smallest first.

Tested on: BDF1 mice, s.c. Lewis lung carcinoma, T/C %
Test: NCI In Vivo Anticancer Drug Screen. Data for tumor model Lewis Lung Carcinoma (subcutaneous) in B6D2F1 (BDF1) mice
Method: The antitumor activity of compounds was measured in mice bearing transplantable tumors. Survival or tumor size were measured and the results are expressed as the measurement made in the treated group (T) divided by the measurement made in the vehicle treated control group (C). The tumor model used in this assay is Lewis Lung Carcinoma (subcutaneous) in B6D2F1 (BDF1) mice

## O[C@@H](CNCCCl)[C@@H](O)CNCCCl
T/C endpoint: mean tumor weight, dose: 0.3 mg/kg/injection, schedule: Q01DX011 (ip), vehicle: water, evaluation day not shown, higher T/C = larger tumour
  T/C: 63 % of control [survivor count not shown]
T/C endpoint: mean tumor weight, dose: 0.6 mg/kg/injection, schedule: Q01DX011 (ip), vehicle: water, evaluation day not shown, higher T/C = larger tumour
  T/C: 78 % of control [survivor count not shown]
T/C endpoint: mean tumor weight, dose: 1.2 mg/kg/injection, schedule: Q01DX011 (ip), vehicle: water, evaluation day not shown, higher T/C = larger tumour
  T/C: 121 % of control [survivor count not shown]
T/C endpoint: mean tumor weight, dose: 2.5 mg/kg/injection, schedule: Q01DX011 (ip), vehicle: saline, evaluation day not shown, higher T/C = larger tumour
  T/C: 53 % of control [survivor count not shown]
T/C endpoint: mean tumor weight, dose: 2.5 mg/kg/injection, schedule: Q01DX011 (ip), vehicle: water, evaluation day not shown, higher T/C = larger tumour
  T/C: 79 % of control [survivor count not shown]
T/C endpoint: mean tumor weight, dose: 5.0 mg/kg/injection, schedule: Q01DX011 (ip), vehicle: saline, evaluation day not shown, higher T/C = larger tumour
  T/C: 44 % of control [survivor count not shown]
T/C endpoint: mean tumor weight, dose: 10.0 mg/kg/injection, schedule: Q01DX011 (ip), vehicle: saline, evaluation day not shown, higher T/C = larger tumour
  T/C: 11 % of control [survivor count not shown]

## O=C(O)CCc1ccc(CN(CCCl)CCCl)cc1
T/C endpoint: mean tumor weight, dose: 0.5 mg/kg/injection, schedule: Q01DX011 (ip), vehicle: other, evaluation day not shown, higher T/C = larger tumour
  T/C: 37 % of control [survivor count not shown]

## CCC1(CC)NC(=O)N(CCN(CCCl)CCCl)C1=O
T/C endpoint: median survival time, dose: 0.78 mg/kg/injection, schedule: Q01DX009 (ip), vehicle: saline, higher T/C = longer survival
  T/C: 97 % of control [survivor count not shown]
T/C endpoint: median survival time, dose: 1.56 mg/kg/injection, schedule: Q01DX009 (ip), vehicle: saline, higher T/C = longer survival
  T/C: 130 % of control [survivor count not shown]
T/C endpoint: median survival time, dose: 3.12 mg/kg/injection, schedule: Q01DX009 (ip), vehicle: saline, higher T/C = longer survival
  T/C: 103 [survivor count not shown] and 165 % of control [survivor count not shown]
T/C endpoint: median survival time, dose: 6.25 mg/kg/injection, schedule: Q01DX009 (ip), vehicle: saline, higher T/C = longer survival
  T/C: 100 [survivor count not shown] and 150 % of control [survivor count not shown]

## COc1ccc(C(=O)O)cc1N(CCCl)CCCl
T/C endpoint: median survival time, dose: 0.06 mg/kg/injection, schedule: Q01DX009 (ip), vehicle: Klucel (hydroxypropylcellulose) (HPC), higher T/C = longer survival
  T/C: 96 % of control [survivor count not shown]
T/C endpoint: median survival time, dose: 0.12 mg/kg/injection, schedule: Q01DX009 (ip), vehicle: Klucel (hydroxypropylcellulose) (HPC), higher T/C = longer survival
  T/C: 109 % of control [survivor count not shown]
T/C endpoint: median survival time, dose: 0.25 mg/kg/injection, schedule: Q01DX009 (ip), vehicle: Klucel (hydroxypropylcellulose) (HPC), higher T/C = longer survival
  T/C: 100 % of control [survivor count not shown]
T/C endpoint: median survival time, dose: 0.5 mg/kg/injection, schedule: Q01DX009 (ip), vehicle: Klucel (hydroxypropylcellulose) (HPC), higher T/C = longer survival
  T/C: 89 % of control [survivor count not shown]
T/C endpoint: median survival time, dose: 1.0 mg/kg/injection, schedule: Q01DX009 (ip), vehicle: Klucel (hydroxypropylcellulose) (HPC), higher T/C = longer survival
  T/C: 110 % of control [survivor count not shown]
T/C endpoint: median survival time, dose: 2.0 mg/kg/injection, schedule: Q01DX009 (ip), vehicle: Klucel (hydroxypropylcellulose) (HPC), higher T/C = longer survival
  T/C: 103 % of control [survivor count not shown]
T/C endpoint: median survival time, dose: 4.0 mg/kg/injection, schedule: Q01DX009 (ip), vehicle: Klucel (hydroxypropylcellulose) (HPC), higher T/C = longer survival
  T/C: 100 % of control [survivor count not shown]
